The test concerns the target interferon stimulated gene (ISG) 15 (human (endogenous in IPSC-derived neurons)) (UniProt P05161). As to the kind of experiment: affinity purification with mass spectrometry; lysates of human IPSC-derived neurons (non-targeted control against ISG15 knockout) treated with 100 ng/mL IFNγ for 24 h; NDG lysis buffer (1% Nonidet P-40, 0.5% deoxycholate, 10% glycerol, 20 mM Tris, 137 mM NaCl, pH 8.0); immunoprecipitated with biotinylated anti-ISG15 (clone F9) on streptavidin magnetic nanoparticles; eluted in 5% glacial acetic acid; LC-MS; hits >5 counts and >5-fold enriched over ISG15 KO precipitates.

Results are given in words; binding and its absence hold for the method and conditions named. In cells and extracts the contact can be indirect. A yes stands for co-enrichment or nearness to the bait. Other partners may have been found.

B1: HYOU1 (protein, UniProt Q9Y4L1 33-999)
chain: LAVMSVDLGSESMKVAIVKPGVPMEIVLNKESRRKTPVIVTLKENERFFGDSAASMAIKNPKATLRYFQHLLGKQADNPHVALYQARFPEHELTFDPQRQTVHFQISSQLQFSPEEVLGMVLNYSRSLAEDFAEQPIKDAVITVPVFFNQAERRAVLQAARMAGLKVLQLINDNTATALSYGVFRRKDINTTAQNIMFYDMGSGSTVCTIVTYQMVKTKEAGMQPQLQIRGVGFDRTLGGLEMELRLRERLAGLFNEQRKGQRAKDVRENPRAMAKLLREANRLKTVLSANADHMAQIEGLMDDVDFKAKVTRVEFEELCADLFERVPGPVQQALQSAEMSLDEIEQVILVGGATRVPRVQEVLLKAVGKEELGKNINADEAAAMGAVYQAAALSKAFKVKPFVVRDAVVYPILVEFTREVEEEPGIHSLKHNKRVLFSRMGPYPQRKVITFNRYSHDFNFHINYGDLGFLGPEDLRVFGSQNLTTVKLKGVGDSFKKYPDYESKGIKAHFNLDESGVLSLDRVESVFETLVEDSAEEESTLTKLGNTISSLFGGGTTPDAKENGTDTVQEEEESPAEGSKDEPGEQVELKEEAEAPVEDGSQPPPPEPKGDATPEGEKATEKENGDKSEAQKPSEKAEAGPEGVAPAPEGEKKQKPARKRRMVEEIGVELVVLDLPDLPEDKLAQSVQKLQDLTLRDLEKQEREKAANSLEAFIFETQDKLYQPEYQEVSTEEQREEISGKLSAASTWLEDEGVGATTVMLKEKLAELRKLCQGLFFRVEERKKWPERLSALDNLLNHSSMFLKGARLIPEMDQIFTEVEMTTLEKVINETWAWKNATLAEQAKLPATEKPVLLSKDIEAKMMALDREVQYLLNKAKFTKPRPRPKDKNGTRAEPPLNASASDQGEKVIPPAGQTEDAEPISEPEKVETGSEPGDTEPLELGGPGAEPEQKEQSTGQKRPLKNDEL
As to B1, the binding result is recorded as “binds”.

These data come from PMC9583544.
